# Data published in publication PMC7153906.
# Biological target: T1, TMEM98-V5 (mouse) (UniProt Q91X86)
# T1 sequence: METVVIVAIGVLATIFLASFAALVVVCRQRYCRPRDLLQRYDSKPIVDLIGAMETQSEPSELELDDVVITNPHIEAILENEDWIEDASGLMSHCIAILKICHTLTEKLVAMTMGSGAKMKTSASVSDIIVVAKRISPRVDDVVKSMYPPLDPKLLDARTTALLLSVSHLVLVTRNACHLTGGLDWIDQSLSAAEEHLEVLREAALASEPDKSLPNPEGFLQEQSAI
# Assay: co-IP; HEK293T cells transiently co-transfected (5 μg of each plasmid), lysed after 24 hours in Cell Lysis Buffer; anti-V5 agarose affinity gel at 4°C overnight; Western blot with anti-MYC, anti-FLAG and anti-V5
row,Substance,binding
1,C-terminal part of MYRF tagged with FLAG (cleaved MYC-MYRF-FLAG) (domain or fragment),binds
2,C-terminal part of MYRFΔ19 tagged with FLAG (cleaved MYC-MYRFΔ19-FLAG) (domain or fragment),binds
3,MYC-MYRFΔ19-FLAG (intact),binds
4,N-terminal part of MYRF tagged with MYC (cleaved MYC-MYRF-FLAG) (domain or fragment),no binding
5,N-terminal part of MYRFΔ19 tagged with MYC (cleaved MYC-MYRFΔ19-FLAG) (domain or fragment),no binding

# These are yes or no findings as the source states them, for the method shown. In cells and extracts the contact can be indirect. Binding can be weak; no strength is given. Tags and fused reporters may be left off the sequences shown.
